This is one part of the list. Most values lie at the level of the controls, where differences are scatter.

By UniProt entry, the sequences of proteins in these tests, tags left out. Where a name states a change or a piece, a line headed by the entry shows the natural chain unless it says otherwise.
UniProt Q8WUM9: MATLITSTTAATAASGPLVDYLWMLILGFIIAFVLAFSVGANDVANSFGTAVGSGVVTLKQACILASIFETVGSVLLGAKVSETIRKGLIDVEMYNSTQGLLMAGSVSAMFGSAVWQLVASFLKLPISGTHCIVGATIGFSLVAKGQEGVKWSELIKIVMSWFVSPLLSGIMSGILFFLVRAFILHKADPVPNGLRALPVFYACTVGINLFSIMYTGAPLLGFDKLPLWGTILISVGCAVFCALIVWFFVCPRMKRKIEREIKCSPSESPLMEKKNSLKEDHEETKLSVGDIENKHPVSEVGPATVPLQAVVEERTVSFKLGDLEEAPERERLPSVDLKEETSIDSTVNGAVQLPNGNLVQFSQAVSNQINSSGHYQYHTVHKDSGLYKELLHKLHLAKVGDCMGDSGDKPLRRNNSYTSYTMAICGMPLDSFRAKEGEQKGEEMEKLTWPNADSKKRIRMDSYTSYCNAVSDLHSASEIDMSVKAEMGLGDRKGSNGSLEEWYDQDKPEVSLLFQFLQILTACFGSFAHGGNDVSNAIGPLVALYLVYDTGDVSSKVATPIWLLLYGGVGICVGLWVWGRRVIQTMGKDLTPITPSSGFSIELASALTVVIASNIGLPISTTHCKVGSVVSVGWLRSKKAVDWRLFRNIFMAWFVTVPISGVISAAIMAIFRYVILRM
UniProt Q8TB61: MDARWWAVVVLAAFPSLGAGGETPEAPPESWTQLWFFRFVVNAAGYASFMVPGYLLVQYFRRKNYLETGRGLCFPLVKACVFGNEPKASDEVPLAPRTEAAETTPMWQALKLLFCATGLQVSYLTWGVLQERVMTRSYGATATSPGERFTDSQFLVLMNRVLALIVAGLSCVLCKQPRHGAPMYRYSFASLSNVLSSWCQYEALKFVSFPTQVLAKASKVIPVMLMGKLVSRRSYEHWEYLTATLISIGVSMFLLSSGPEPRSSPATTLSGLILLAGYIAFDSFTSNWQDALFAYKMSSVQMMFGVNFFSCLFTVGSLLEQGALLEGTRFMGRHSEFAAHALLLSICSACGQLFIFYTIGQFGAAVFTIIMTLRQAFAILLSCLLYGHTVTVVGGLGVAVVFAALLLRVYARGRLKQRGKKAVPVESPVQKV
UniProt Q8TEA8: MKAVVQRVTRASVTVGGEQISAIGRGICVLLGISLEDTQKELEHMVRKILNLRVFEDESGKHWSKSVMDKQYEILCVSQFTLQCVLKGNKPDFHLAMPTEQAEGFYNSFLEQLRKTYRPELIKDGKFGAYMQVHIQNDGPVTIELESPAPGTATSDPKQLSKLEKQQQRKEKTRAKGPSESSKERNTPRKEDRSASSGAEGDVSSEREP
UniProt Q8TEV9: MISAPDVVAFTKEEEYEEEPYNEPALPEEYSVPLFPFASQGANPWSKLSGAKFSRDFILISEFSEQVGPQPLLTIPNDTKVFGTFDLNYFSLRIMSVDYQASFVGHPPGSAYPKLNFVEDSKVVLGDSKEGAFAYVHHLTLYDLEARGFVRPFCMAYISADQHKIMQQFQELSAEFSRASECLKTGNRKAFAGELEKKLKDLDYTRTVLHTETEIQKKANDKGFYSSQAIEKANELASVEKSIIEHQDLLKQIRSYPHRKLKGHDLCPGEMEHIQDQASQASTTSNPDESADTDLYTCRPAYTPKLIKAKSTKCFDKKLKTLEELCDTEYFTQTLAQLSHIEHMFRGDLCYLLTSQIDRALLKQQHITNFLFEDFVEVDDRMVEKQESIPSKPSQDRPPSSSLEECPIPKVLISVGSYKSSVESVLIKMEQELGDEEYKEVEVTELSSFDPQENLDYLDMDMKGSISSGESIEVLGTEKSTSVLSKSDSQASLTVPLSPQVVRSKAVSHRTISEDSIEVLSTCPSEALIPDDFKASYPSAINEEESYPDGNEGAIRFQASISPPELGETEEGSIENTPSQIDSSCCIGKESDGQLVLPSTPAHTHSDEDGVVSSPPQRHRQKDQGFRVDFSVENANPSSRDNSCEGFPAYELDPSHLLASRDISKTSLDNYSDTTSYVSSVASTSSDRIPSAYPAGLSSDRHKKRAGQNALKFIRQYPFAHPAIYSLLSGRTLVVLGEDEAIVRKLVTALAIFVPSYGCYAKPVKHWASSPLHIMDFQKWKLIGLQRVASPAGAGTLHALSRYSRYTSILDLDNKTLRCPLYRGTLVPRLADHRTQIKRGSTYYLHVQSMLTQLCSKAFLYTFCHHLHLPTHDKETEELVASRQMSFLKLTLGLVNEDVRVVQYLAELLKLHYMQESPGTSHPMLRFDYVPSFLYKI
UniProt Q8TDQ7: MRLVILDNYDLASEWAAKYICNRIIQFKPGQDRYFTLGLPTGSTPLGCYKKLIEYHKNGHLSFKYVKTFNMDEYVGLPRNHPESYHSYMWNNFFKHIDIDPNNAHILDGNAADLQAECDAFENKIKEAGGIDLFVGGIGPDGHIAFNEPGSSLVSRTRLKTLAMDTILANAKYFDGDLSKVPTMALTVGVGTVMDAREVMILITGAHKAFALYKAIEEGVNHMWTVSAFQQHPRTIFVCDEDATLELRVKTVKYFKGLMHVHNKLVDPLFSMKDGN
UniProt Q8WWN8: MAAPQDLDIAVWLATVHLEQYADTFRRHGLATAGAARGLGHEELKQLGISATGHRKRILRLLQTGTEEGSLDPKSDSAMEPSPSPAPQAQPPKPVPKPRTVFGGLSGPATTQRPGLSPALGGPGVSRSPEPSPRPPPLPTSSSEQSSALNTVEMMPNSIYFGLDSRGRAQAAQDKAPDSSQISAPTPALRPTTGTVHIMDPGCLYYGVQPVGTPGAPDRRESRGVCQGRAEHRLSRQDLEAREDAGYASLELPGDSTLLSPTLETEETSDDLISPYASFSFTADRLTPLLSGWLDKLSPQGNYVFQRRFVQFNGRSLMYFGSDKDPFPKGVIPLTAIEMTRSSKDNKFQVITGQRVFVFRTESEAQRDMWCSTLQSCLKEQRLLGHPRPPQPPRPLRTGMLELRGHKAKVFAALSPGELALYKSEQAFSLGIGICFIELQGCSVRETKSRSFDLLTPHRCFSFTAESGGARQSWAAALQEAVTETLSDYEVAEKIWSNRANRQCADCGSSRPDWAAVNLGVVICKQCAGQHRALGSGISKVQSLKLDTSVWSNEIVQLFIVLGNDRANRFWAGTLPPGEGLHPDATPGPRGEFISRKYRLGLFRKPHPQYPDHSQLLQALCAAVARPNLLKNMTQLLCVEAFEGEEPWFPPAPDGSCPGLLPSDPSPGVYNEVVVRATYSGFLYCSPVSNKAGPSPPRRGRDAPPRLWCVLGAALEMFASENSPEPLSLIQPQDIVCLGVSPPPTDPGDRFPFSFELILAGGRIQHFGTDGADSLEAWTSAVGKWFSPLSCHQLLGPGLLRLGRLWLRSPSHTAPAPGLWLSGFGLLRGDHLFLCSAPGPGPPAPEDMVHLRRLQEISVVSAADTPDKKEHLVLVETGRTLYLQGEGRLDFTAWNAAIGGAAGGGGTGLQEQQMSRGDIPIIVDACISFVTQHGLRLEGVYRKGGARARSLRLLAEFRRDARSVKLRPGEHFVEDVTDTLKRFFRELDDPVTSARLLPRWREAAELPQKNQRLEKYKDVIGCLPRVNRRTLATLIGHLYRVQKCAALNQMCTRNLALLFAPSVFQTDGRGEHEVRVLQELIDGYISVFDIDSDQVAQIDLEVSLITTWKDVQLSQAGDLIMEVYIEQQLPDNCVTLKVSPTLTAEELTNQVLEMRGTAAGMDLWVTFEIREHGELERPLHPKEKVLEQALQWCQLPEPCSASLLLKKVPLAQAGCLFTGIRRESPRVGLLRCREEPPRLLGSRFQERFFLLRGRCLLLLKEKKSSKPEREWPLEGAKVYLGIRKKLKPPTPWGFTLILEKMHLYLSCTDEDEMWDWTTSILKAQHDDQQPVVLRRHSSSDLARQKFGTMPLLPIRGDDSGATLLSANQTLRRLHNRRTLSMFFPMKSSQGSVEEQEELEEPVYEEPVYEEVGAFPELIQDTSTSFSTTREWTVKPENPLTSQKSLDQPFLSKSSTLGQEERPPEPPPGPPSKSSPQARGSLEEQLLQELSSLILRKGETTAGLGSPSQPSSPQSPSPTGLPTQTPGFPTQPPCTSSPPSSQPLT
UniProt Q8TDP1: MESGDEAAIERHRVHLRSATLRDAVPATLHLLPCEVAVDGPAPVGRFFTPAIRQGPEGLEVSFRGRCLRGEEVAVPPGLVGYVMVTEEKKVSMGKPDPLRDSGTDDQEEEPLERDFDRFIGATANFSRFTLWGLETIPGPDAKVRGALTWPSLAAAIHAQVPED
UniProt Q8WV93: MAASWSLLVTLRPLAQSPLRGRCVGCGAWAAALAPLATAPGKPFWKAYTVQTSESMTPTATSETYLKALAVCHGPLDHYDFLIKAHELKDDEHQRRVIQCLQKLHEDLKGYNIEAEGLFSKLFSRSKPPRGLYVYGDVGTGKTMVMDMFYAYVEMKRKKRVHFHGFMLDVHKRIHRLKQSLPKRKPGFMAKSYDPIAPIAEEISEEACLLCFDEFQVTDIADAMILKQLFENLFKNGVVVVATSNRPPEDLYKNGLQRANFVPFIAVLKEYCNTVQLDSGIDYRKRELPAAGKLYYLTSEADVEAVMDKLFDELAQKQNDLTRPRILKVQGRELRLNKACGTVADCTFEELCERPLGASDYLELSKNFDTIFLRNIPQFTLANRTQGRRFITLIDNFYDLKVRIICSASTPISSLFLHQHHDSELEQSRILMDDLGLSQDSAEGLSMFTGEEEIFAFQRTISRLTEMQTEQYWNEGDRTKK
UniProt Q8WY54: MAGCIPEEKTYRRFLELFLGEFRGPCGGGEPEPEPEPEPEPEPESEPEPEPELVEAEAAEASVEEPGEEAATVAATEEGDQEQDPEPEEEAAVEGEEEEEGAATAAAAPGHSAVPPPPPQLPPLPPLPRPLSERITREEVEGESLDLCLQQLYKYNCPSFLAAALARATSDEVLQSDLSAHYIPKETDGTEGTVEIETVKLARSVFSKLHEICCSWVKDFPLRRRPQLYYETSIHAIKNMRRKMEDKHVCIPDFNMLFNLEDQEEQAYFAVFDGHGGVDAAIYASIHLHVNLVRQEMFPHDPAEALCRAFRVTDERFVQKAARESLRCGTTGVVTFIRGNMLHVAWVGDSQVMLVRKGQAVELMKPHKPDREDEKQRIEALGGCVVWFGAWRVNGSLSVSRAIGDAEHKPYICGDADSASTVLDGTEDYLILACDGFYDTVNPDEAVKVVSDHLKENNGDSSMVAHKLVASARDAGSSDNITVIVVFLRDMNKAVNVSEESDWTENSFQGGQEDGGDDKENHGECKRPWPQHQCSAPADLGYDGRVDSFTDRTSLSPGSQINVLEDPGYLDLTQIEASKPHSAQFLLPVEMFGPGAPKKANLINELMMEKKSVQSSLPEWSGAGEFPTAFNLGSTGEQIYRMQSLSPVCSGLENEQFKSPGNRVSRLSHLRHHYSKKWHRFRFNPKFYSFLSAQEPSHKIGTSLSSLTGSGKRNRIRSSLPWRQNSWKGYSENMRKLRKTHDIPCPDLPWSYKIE

Compound in this assay: Cc1nc(Nc2ncc(C(=O)Nc3c(C)cccc3Cl)s2)cc(N2CCN(CCO)CC2)n1 [dasatinib]
Briefly: log2 fold change of tryptic peptide abundance, ligand vs vehicle (limited proteolysis) (log2 ratio); higher = more trypsin-susceptible (destabilized). The following applies: ligand concentration: 5 uM; sample: K562 cleared lysate.
Regarding “SLC20A1 (peptide sequence: LGDLEEAPER, peptide start residue: 321) (UniProt Q8WUM9)”, the log2 fold change came out at 0.381.
The value for “SLC35B2 (peptide sequence: ASDEVPLAPR, peptide start residue: 88) (UniProt Q8TB61)” was 0.265.
To “DTD1 (peptide sequence: AKGPSESSK, peptide start residue: 175) (UniProt Q8TEA8)” belongs -0.0662; to “SMCR8 (peptide sequence: SIIEHQDLLK, peptide start residue: 242) (UniProt Q8TEV9)”, -0.319.
“GNPDA2 (peptide sequence: LVDPLFSMK, peptide start residue: 265) (UniProt Q8TDQ7)”: the log2 fold change was 0.123.
Regarding “ARAP3 (peptide sequence: LRPGEHFVEDVTDTLKR, peptide start residue: 966) (UniProt Q8WWN8)”, the log2 fold change is -0.161.
Regarding “RNASEH2C (peptide sequence: FIGATANFSR, peptide start residue: 119) (UniProt Q8TDP1)”, the log2 fold change turned out to be 0.136.
To “UniProt Q8WV93 (peptide sequence: ALAVCHGPLDHYDFLIK, peptide start residue: 68)” belongs 0.582.
To “PARD3 (peptide sequence: TNQDAMETLRR, peptide start residue: 654) (UniProt Q8TEW0)” belongs -0.72; to “PPM1E (peptide sequence: RRPQLYYETSIHAIK, peptide start residue: 224) (UniProt Q8WY54)”, 0.258.
